Results deposited as PubChem BioAssay AID1508597 (Cure First, 2020)
Shown is a random part of the about 2,100 reagents, in one setting of the screen. 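Calls flag viability under 80% in either arm, not effects specific to rucaparib; the reference for percent is not stated.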 The numbers tell different reagents against one gene apart. Some reagents were tested in more than one well and are listed for each. Not given: the 100% reference.

- Assay: 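Survival screen with siRNA in ovarian cancer cells derived from patients, with or without rucaparib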 (primary screen)
- Cell system: human ovarian carcinoma lines grown from tumours: OCI-P5x (papillary serous) and OCI-C5x (clear cell)
- Reagent: siRNA pool against human genes, 1.25 pmol siRNA per well
- Timing: 72 h or 96 h, depending on the cell culture
- Conditions: rucaparib 20 µM (about IC30) or vehicle, present until read-out
- Rucaparib or vehicle: Vehicle
- Cell line: OCI-P5x (serous)
- Detection: 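ATP luminescence measured at 72 or 96 h according to the culture, then normalised and expressed as percent viability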
- Direction: viability, normalised: higher = more viable cells remaining
- Active means: 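a well counts as a hit if its normalised viability is under 80 percent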
- Meaning of the calls: active = viability under 80%; inactive = viability 80% or more

The opening 2 entries, to show the layout:
| gene | reagent | technical replicate | viability, normalised (%) | activity call |
| --- | --- | --- | --- | --- |
| CDK12 (cyclin dependent kinase 12) | 1 | 1 | 78 | active |
| CDK12 (cyclin dependent kinase 12) | 1 | 1 | 49.1 | active |

The listing, repeating the preview:
| gene | reagent | technical replicate | viability, normalised (%) | activity call |
| --- | --- | --- | --- | --- |
| CDK12 (cyclin dependent kinase 12) | 1 | 1 | 78 | active |
| CDK12 (cyclin dependent kinase 12) | 1 | 1 | 49.1 | active |
| CDK12 (cyclin dependent kinase 12) | 1 | 2 | 81.9 | inactive |
| CDK12 (cyclin dependent kinase 12) | 1 | 2 | 57.4 | active |
| CDK12 (cyclin dependent kinase 12) | 1 | 3 | 43.7 | active |
| CDK12 (cyclin dependent kinase 12) | 1 | 3 | 77.9 | active |
| CDK12 (cyclin dependent kinase 12) | 2 | 1 | 77.8 | active |
| CDK12 (cyclin dependent kinase 12) | 2 | 2 | 64.2 | active |
| CDK12 (cyclin dependent kinase 12) | 2 | 3 | 72.7 | active |
| GTF2H1 (general transcription factor IIH subunit 1) | 1 | 1 | 74.6 | active |
| GTF2H1 (general transcription factor IIH subunit 1) | 1 | 2 | 71.9 | active |
| GTF2H1 (general transcription factor IIH subunit 1) | 1 | 3 | 66.3 | active |
| SHPRH (SNF2 histone linker PHD RING helicase) | 1 | 1 | 66.1 | active |
| SHPRH (SNF2 histone linker PHD RING helicase) | 1 | 2 | 62.6 | active |
| SHPRH (SNF2 histone linker PHD RING helicase) | 1 | 3 | 80.3 | inactive |
| MAPK14 (mitogen-activated protein kinase 14) | 1 | 1 | 93 | inactive |
| MAPK14 (mitogen-activated protein kinase 14) | 1 | 2 | 89.1 | inactive |
| MAPK14 (mitogen-activated protein kinase 14) | 1 | 3 | 85.7 | inactive |
| CAMK2B (calcium/calmodulin dependent protein kinase II beta) | 1 | 1 | 81 | inactive |
| CAMK2B (calcium/calmodulin dependent protein kinase II beta) | 1 | 2 | 66.7 | active |
| CAMK2B (calcium/calmodulin dependent protein kinase II beta) | 1 | 3 | 91.2 | inactive |
| RAX2 (retina and anterior neural fold homeobox 2) | 1 | 1 | 85.6 | inactive |
| RAX2 (retina and anterior neural fold homeobox 2) | 1 | 2 | 88.9 | inactive |
| RAX2 (retina and anterior neural fold homeobox 2) | 1 | 3 | 92.1 | inactive |
